Columns and labels:
SHRs = assay: Telemetric monitoring of conscious SHRs during dobutamine infusion; assay type: in vivo, rat (SHR); conditions: 1 mg/kg
Procedure: Two days after catherization of the jugular vein, control values were taken and 1 mg/kg β1-AS-ODN was injected. 48 hr later, rats were tested for the effect of β1-AS-ODN. The rats were allowed to recover until all the cardiovascular parameters returned to control values. […] For β1-stimulation, SHRs were infused with dobutamine (β1-selective agonist) through a jugular vein catheter at 5, 10, 20, and 40 μg·kg^−1·min.^−1. Each dose was given for 5 min. continuously and at 1-hr intervals until all the cardiovascular parameters returned to baseline values so as to avoid the effect of tachyphylaxis. BP and HR were sampled every 1 min. dP/dtmax was calculated from the slope of the rising pulse-pressure curve and determined every 1 min. The difference between values at each dose and baseline was denoted as Δ.
Two days after catheterization of jugular vein, control values were taken and 1 mg/kg β1-AS-ODN was injected. Forty-eight hr later, rats were tested for the effect of β1-AS-ODN. The rats were allowed to recover until all the cardiovascular parameters returned to control values. […] For β1-stimulation, SHR were infused with dobutamine (β1-selective agonist) through jugular vein catheter at 5, 10, 20, 40 μg/kg/min. Each dose was given for 5 min continuously and at 1-hr intervals until all cardiovascular parameters returned to baseline so as to avoid the effect of tachyphylaxis. BP and HR were sampled every min. dP/dtmax was calculated from the slope of the rising pulse pressure curve and determined every min. The difference between values at each dose and baseline was denoted as Δ.

β1-AR = assay: β-AR density in myocardium after ischemia-reperfusion (binding assay); parameters: species or system Sprague-Dawley rats; conditions: rat, in vivo
Procedure: Membrane protein was prepared from left ventricles as previously described (Baker and Pitha, 1982). For saturation studies, 100 μg membrane protein was incubated in triplicate with ^125I-(−)iodocyanopindolol (I-CYP, NEN Life Science, 6.25-100 pM) in a total volume of 250 μl containing 50 mM Tris-HCl (pH 7.4), 5 mM MgCl2 at 36° C. for 60 min. The nonspecific and β2-adrenoceptor binding were determined in the presence of 1 μM (±)-alprenolol and […] (RBI), respectively. Then the reaction mixture was passed through Whatman GF/B glass filter using Brandel harvester and the radioactivity was counted for one min.

CC(C)NCC(O)COc1ccc(CC(N)=O)cc1 (stereo not shown) [atenolol]
decline in ΔdP/dtmax and ΔHR relative to β1-AS-ODN (SHRs; during a 5 hr period after injection): more profound decline | basal dP/dtmax (SHRs; control 2937±277): 2450±295 mm Hg/s | resting dP/dtmax (SHRs; control 2937±277): 2450±295 mmHg/sec | effect on β1-AR density in ischemic-reperfused myocardium (β1-AR): no effect

Source: US6489307B1, “Antisense compositions targeted to β1-adrenoceptor-specific mRNA and methods of use” (University of Florida, priority 1998, dated 2002)
